# Experimental data from PubChem BioAssay AID1671190 (National Center for Advancing Translational Sciences (NCATS), 2021).
# The chains behind the UniProt entries cited, without tags or fusion partners. Where a name states a change or a piece, a line headed by the entry shows the natural chain unless it says otherwise.
# UniProt P18054: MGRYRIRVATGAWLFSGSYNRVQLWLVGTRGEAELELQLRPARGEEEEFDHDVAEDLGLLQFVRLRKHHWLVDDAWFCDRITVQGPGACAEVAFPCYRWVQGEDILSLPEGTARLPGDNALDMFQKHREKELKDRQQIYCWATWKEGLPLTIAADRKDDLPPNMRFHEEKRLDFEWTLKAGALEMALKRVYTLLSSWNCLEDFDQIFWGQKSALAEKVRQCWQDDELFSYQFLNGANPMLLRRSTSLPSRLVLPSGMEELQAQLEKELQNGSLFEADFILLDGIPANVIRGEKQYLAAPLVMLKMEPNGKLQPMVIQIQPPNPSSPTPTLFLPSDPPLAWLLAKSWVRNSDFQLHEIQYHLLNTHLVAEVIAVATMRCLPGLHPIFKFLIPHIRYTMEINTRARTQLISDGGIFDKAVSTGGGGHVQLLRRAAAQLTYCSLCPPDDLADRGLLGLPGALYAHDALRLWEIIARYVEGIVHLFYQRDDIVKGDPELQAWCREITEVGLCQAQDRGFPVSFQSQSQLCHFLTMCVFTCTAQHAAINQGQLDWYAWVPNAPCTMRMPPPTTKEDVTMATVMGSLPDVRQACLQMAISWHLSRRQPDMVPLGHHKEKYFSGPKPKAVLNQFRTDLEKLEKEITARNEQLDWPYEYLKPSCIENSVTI
# Out of some 580,000 compounds screened, about 6,100 (1.1%) were called active. Inconclusive results, whose numbers are uncertain, are shown with a selection of clear calls. The call rests on the fitted dose curve; in most records, active means well fitted inhibition curve with a large enough effect; inconclusive means small, poorly fitted or top-dose-only effect, or another doubt; inactive means no such curve, though single readings can be large or run the other way. A potency beside an inconclusive call is a rough fit, not a confirmed value.
# Molecular target: Polyunsaturated fatty acid lipoxygenase ALOX12 (Homo sapiens) (UniProt P18054)
# Assay: Primary qHTS assay for inhibitors of human arachidonate 12S-lipoxygenase (ALOX12): Round 2
# Settings: purified 12hLO, xylenol orange hydroperoxide absorbance; activity change, negative = inhibition: at 108 µM (top of the series) unless noted
# Procedure, shortened: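 Hydroperoxide product was detected by ferrous iron/xylenol orange as the 573 to 405 nm absorbance ratio. Arachidonic acid at 40 uM (final) was turned over for 30 min at room temperature by 150 nM human 12hLO, pH 7.0 Hepes buffer, after 15 min compound preincubation.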
# On the % scale 0 is the no-effect control and ±100 the full control effect; potency means the concentration at half of the fitted maximal effect.
SMILES,Potency,"activity change, negative = inhibition"
Cc1noc(C)c1C(=O)Nc1nnc(CC(C)C)s1,"inconclusive: 141 µM [inhibitor, single point]",
O=C(O)c1cc(N/N=C/c2ccc(N3CCOCC3)s2)ccc1Cl,"inconclusive: 50.1 µM [inhibitor, partial curve, poor fit]",
CCOC(=O)N1CCC(N2CCN(c3cc(C)ccc3C)CC2)CC1,active: 6.31 µM,
O=C(Cc1ccc(N(Cc2cccc(F)c2)C(=O)c2ccco2)cc1)NCc1ccco1,"inconclusive: 11.2 µM [inhibitor, partial curve, poor fit]",
CCCCOc1ccc(-c2nc(-c3cccnc3)no2)cc1,"inconclusive: 141 µM [inhibitor, single point]",
CC(C)c1ccc(C(O)P(=O)(OC2CCCCC2)OC2CCCCC2)cc1 (stereo not given),"inconclusive: 0.0891 µM [inhibitor, full curve, poor fit]",
Oc1cccc(Nc2nc(-c3ccccc3)nc3ccccc23)c1,"inconclusive: 70.8 µM [inhibitor, partial curve, poor fit]",
Cc1ccnn1Cc1cc(C(=O)O)c2ccccc2n1,"inconclusive: 35.5 µM [inhibitor, partial curve, poor fit]",
CCCCCOc1ccc(C(C2C(=O)CC(c3ccccc3)CC2=O)C2C(=O)CC(c3ccccc3)CC2=O)cc1 (stereo not given),"inconclusive: 2.82 µM [inhibitor, full curve]",
O=C(NC(=S)Nc1ccccc1N1CCOCC1)c1cccs1,"inconclusive: 35.5 µM [inhibitor, partial curve, poor fit]",
CCOC(=O)c1c(CC(C)C)csc1NC=O,"inconclusive: 3.55 µM [inhibitor, full curve, poor fit]",
CC(=O)c1ccc(-c2ccc([C@H]3[C@H]4C=CC[C@@H](C)[C@@H]4C(=O)N3Cc3ccccc3)c(F)c2)cc1,inactive,
Cc1ccc2nc(CN(C)C(=O)[C@H]3O[C@@H](n4ccc(=O)[nH]c4=O)[C@H](O)[C@@H]3O)[nH]c2c1,"inconclusive: 112 µM [inhibitor, single point]",
CN(CC(=O)Nc1ccc(Cl)cc1C(F)(F)F)C1CCc2ccccc21 (stereo not given),inactive,
Nc1ccccc1C12CC3CC(CC(C3)C1)C2,inactive,
Cc1cccc(C)c1NC(=O)C(c1cccc2ccccc12)n1c(=O)c(-c2ccco2)nc2ccccc21 (stereo not given),"inconclusive: 44.7 µM [inhibitor, partial curve, poor fit]",
O=C(CSC1=Nc2ccccc2C2=NC(CCC(=O)NC3CCCCC3)C(=O)N12)Nc1cccc(Cl)c1 (stereo not given),inactive,
O=C(O)CC(C(=O)N(c1ccccc1)c1ccccc1)N1CCOCC1 (stereo not given),"inconclusive: 3.55 µM [inhibitor, full curve, poor fit]",
CCOc1cc(Br)c(C2C(C#N)=C(N)Oc3c2ccc2ccccc32)cc1OC (stereo not given),"inconclusive: 39.8 µM [inhibitor, partial curve, poor fit]",
Cn1nc2n(c1=O)CCN(C(=O)CC1=CCCCC1)CC2,inactive,
COCCNc1oc(-c2ccc(OC)cc2)nc1S(=O)(=O)c1ccccc1,"inconclusive: 35.5 µM [inhibitor, partial curve, poor fit]",
COc1ccc(C2=Nc3ccccc3N(C(=O)c3ccc4ncccc4c3)C2C(=O)NC2CCCC2)cc1 (stereo not given),"inconclusive: 39.8 µM [inhibitor, single point]",

SMILES,Potency,"activity change, negative = inhibition"
CC(C)C(=O)N1N=C(c2ccc(Cl)cc2)CC1c1ccc2nccnc2c1 (stereo not given),inactive,
COc1ccc(C(=O)CSc2nnc(-c3ccccn3)n2Cc2ccco2)cc1,inactive,
COc1ccccc1/C=C/C(=O)NC(=S)NC(C)C,active: 25.1 µM,
Cc1ccc(NC(=S)/N=C(\N)Nc2nc(C)c3cc(C)c(C)cc3n2)cc1C,active: 35.5 µM,
O=C(O)Cn1c2c(c3ccccc31)CSc1ccc(Cl)cc1-2,"inconclusive: 31.6 µM [inhibitor, partial curve, poor fit]",
CCOC(=O)c1c(C)[nH]c(C)c1S(=O)(=O)N(C)CC(=O)Nc1cc(Cl)ccc1OC,,inconclusive: -31.5% [inhibitor]
O=C(NNS(=O)(=O)c1ccccc1)c1ccc(S(=O)(=O)N2CCCCC2)cc1,"inconclusive: 28.2 µM [inhibitor, full curve, poor fit]",
O=C(NCC1CCOCC1)C1COc2ccccc2O1 (stereo not given),inactive,
CNc1oc(-c2cc(S(=O)(=O)N3CCCC3)c(C)o2)nc1C#N,inactive,
O=C(NCc1cccnc1)c1ccc(S(=O)(=O)N2CCCCC2)cc1,"inconclusive: 10 µM [inhibitor, single point]",
COc1ccccc1N1CCN(CCC(=O)Nc2cccc(F)c2)CC1,"inconclusive: 44.7 µM [inhibitor, partial curve, poor fit]",
COc1cc2[nH]c(C)c(-c3ccccc3)c(=O)c2cc1Cl,inactive,
COc1cc(CNc2ccc3[nH]c(=O)[nH]c3c2)ccc1OCc1ccccc1C,"inconclusive: 50.1 µM [inhibitor, partial curve, poor fit]",
CCSc1oc(-c2ccccc2)nc1S(=O)(=O)c1ccccc1,"inconclusive: 6.31 µM [inhibitor, full curve, poor fit]",
Cc1ccccc1-c1ccc(C=Nc2c(C)n(C)n(-c3ccccc3)c2=O)o1,"inconclusive: 126 µM [inhibitor, partial curve, poor fit]",
COc1ccc(-c2ccnc3c(C(=O)O)cnn23)cc1,"inconclusive: 0.316 µM [inhibitor, full curve, poor fit]",
O=C(Nc1ccc2oc(-c3cccc(I)c3)nc2c1)c1cccc([N+](=O)[O-])c1,inactive,
COc1cc2c(ccc3cc(OC)c(OC)c(O)c32)cc1O,"inconclusive: 112 µM [inhibitor, single point]",
Cc1ccc(S(=O)(=O)C[C@@H]2OC[C@H](C)N2S(=O)(=O)c2ccc(C)cc2)cc1,"inconclusive: 35.5 µM [inhibitor, partial curve, poor fit]",
CCN(C(=O)c1coc(=O)c2ccccc12)c1cc(OC)ccc1OC,"inconclusive: 141 µM [inhibitor, single point]",
Cc1onc(-c2ccccc2)c1C(=O)N/N=C/c1ccc(Br)cc1,"inconclusive: 35.5 µM [inhibitor, partial curve]",
COc1ccc(-c2coc3cc(OC(C)=O)ccc3c2=S)cc1,"inconclusive: 7.94 µM [inhibitor, full curve]",

# Reprinted at random: 3 entries already listed
SMILES,Potency,"activity change, negative = inhibition"
O=C(NNS(=O)(=O)c1ccccc1)c1ccc(S(=O)(=O)N2CCCCC2)cc1,"inconclusive: 28.2 µM [inhibitor, full curve, poor fit]",
COc1cc(CNc2ccc3[nH]c(=O)[nH]c3c2)ccc1OCc1ccccc1C,"inconclusive: 50.1 µM [inhibitor, partial curve, poor fit]",
CCN(C(=O)c1coc(=O)c2ccccc12)c1cc(OC)ccc1OC,"inconclusive: 141 µM [inhibitor, single point]",

# Going on with the list.

SMILES,Potency,"activity change, negative = inhibition"
O=c1[nH]c(C2CCN(S(=O)(=O)c3cccc([N+](=O)[O-])c3)CC2)nc2c1nnn2Cc1ccccc1,"inconclusive: 50.1 µM [inhibitor, partial curve, poor fit]",
CC(C)CNS(=O)(=O)c1cc(C(=O)N2CCOCC2)c(Cl)cc1Cl,inactive,
Cc1cccc2c(C(=O)NCc3ccco3)cc(-c3cccnc3)nc12,"inconclusive: 100 µM [inhibitor, partial curve, poor fit]",
CCC1(C)Cc2c(sc3nnn(CC(=O)Nc4ccccc4)c(=O)c23)CO1 (stereo not given),inactive,
CC1CCN(c2ccccc2NC(=S)NC(=O)c2ccc(-c3cccc([N+](=O)[O-])c3)o2)CC1,"inconclusive: 15.8 µM [inhibitor, partial curve, poor fit]",
O=C(Cn1c(=O)n(-c2ccccc2)c(=O)c2ccc(C(=O)NCc3ccc4c(c3)OCO4)cc21)Nc1ccc(Br)cc1F,"inconclusive: 28.2 µM [inhibitor, partial curve, poor fit]",
NCCCCCCNS(=O)(=O)c1cccc2c(Cl)cccc12,inactive,
N#Cc1ncc(-c2ccc3c(c2)OCCOCCOCCOCCOCCO3)nc1C#N,inactive,
O=C(Nc1ccc2c(c1)OCO2)N[C@H]1CC[C@@]23CCCN2C(=O)CCC[C@H]3C1Cc1ccccc1 (stereo not given in full),"inconclusive: 79.4 µM [inhibitor, partial curve, poor fit]",
CCC1CN(CC(=O)NC(C)CO)Cc2cc(OC)ccc2O1 (stereo not given),"inconclusive: 44.7 µM [inhibitor, partial curve, poor fit]",
O=C(CSc1ccc2ccccc2n1)NCCc1ccc(Cl)cc1,"inconclusive: 126 µM [inhibitor, partial curve, poor fit]",
COc1cc(C2Oc3cc(C4Oc5cc(O)cc(O)c5C(=O)C4O)ccc3OC2CO)ccc1O (stereo not given),"inconclusive: 44.7 µM [inhibitor, partial curve, poor fit]",
O=C(c1ccc2c(c1)OCO2)N1CCC(c2nc3c(nnn3Cc3cccc(Cl)c3)c(=O)[nH]2)CC1,active: 12.6 µM,
CC(=O)NC(c1cccc(F)c1)c1nc(-c2ccc(C)c(C)c2)cs1 (stereo not given),"inconclusive: 44.7 µM [inhibitor, partial curve, poor fit]",
Cc1ccccc1NC(=O)c1ccccc1NC(=O)c1ccccc1F,"inconclusive: 126 µM [inhibitor, single point]",
Cc1cccc(C)c1NC(=O)C1(C)CSCC(=O)N1Cc1ccco1 (stereo not given),"inconclusive: 44.7 µM [inhibitor, partial curve, poor fit]",
FC(F)(F)c1ccccc1CN1CCC(Cc2ccccc2)CC1,active: 0.708 µM,
COc1ccc(-c2nc3ccc(C(=O)NCc4ccccc4)cc3nc2-c2ccc(OC)cc2)cc1,inactive,
COc1ccccc1Cn1[nH]nnc1=S,active: 22.4 µM,
COc1ccc(OCC(O)CNc2ccc(Br)cc2)cc1 (stereo not given),"inconclusive: 89.1 µM [inhibitor, single point]",
COc1cc(-c2nc3ccccn3c2/N=C/c2ccccc2)ccc1O,"inconclusive: 56.2 µM [inhibitor, partial curve, poor fit]",
